The text below walks through data of the supplement of paper PMC12819154, “High-throughput peptide-centric local stability assay extends protein–ligand identification to membrane proteins, tissues and bacteria” (Nature Structural & Molecular Biology, 2025).

Protein sequences, listed by entry. Tags and fused reporters are not part of them. Lines headed by an entry give the natural chain unless they say otherwise; changes in a name come on top.
UniProt Q9UBE0: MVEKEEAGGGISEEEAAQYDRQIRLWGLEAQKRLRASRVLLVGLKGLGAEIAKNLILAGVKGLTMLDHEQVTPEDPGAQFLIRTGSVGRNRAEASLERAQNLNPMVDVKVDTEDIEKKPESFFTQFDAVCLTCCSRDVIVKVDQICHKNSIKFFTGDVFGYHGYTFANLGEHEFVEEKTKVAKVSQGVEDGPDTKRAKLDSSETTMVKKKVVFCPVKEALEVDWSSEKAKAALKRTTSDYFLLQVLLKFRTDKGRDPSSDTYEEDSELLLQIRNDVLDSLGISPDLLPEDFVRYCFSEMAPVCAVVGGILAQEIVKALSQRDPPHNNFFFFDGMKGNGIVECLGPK
UniProt Q9UJZ1: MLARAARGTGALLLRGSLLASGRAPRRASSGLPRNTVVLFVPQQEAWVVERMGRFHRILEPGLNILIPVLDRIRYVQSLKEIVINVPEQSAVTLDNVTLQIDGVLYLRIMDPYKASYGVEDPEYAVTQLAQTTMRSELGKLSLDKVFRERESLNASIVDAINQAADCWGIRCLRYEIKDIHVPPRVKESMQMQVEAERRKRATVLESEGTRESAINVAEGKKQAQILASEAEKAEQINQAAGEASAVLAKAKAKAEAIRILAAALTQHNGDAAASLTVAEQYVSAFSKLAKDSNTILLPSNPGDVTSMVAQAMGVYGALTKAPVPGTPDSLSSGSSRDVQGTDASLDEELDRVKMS
UniProt Q9UHA2: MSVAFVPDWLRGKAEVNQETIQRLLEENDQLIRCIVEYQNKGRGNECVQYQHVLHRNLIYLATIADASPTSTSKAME
UniProt Q9P2M4: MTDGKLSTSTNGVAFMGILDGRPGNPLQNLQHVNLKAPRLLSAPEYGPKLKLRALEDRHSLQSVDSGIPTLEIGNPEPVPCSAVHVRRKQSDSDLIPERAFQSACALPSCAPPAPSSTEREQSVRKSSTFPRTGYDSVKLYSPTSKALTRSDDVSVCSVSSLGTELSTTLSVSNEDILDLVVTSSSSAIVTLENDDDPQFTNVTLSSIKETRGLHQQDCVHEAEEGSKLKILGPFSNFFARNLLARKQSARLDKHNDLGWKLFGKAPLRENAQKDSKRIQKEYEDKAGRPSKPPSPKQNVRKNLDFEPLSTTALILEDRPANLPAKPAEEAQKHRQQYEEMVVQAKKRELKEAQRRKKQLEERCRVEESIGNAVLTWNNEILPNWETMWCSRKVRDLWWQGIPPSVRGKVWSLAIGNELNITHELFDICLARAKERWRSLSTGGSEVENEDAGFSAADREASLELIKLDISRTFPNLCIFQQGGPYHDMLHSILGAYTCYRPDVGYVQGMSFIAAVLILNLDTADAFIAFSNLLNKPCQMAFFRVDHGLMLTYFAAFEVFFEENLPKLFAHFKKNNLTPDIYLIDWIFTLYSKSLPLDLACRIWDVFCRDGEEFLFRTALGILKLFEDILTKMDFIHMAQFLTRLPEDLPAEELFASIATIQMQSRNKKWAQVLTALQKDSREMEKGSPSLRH
UniProt Q9NZQ9: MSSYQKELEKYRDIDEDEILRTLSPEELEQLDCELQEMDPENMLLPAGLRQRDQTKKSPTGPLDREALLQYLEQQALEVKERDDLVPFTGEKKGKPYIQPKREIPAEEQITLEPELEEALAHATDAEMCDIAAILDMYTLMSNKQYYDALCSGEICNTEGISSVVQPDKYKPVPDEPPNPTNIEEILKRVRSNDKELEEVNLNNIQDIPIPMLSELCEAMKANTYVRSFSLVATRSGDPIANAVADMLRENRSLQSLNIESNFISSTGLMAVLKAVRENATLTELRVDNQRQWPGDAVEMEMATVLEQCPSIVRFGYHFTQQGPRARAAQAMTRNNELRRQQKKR
UniProt Q9UHN1: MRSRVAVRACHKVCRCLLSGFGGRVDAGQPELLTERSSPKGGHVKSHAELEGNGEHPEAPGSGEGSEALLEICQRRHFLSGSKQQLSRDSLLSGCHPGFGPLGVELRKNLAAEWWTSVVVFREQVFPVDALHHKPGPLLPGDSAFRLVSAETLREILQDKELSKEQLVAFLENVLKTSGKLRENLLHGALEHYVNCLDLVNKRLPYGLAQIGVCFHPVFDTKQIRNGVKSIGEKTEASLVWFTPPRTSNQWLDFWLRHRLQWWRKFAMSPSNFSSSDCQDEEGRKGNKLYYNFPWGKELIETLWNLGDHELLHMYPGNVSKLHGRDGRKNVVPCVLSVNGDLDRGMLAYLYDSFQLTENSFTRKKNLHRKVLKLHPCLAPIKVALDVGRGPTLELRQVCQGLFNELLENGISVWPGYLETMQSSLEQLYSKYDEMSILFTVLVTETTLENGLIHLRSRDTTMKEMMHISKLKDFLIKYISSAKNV
UniProt Q9NZZ3: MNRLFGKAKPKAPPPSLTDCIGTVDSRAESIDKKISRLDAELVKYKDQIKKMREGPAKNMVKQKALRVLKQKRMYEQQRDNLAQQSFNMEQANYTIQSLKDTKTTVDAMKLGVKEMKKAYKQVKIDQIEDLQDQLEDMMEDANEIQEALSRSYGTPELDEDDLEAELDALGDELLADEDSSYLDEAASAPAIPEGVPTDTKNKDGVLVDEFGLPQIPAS
UniProt Q9UIV1, whole entry: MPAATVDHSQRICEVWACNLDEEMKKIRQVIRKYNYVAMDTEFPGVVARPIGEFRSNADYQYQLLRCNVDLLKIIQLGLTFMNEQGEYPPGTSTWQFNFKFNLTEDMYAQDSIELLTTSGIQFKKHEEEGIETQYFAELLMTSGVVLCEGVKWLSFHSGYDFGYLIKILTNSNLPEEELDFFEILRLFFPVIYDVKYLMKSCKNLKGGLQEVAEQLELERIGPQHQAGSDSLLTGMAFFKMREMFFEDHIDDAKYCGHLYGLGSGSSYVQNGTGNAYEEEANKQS
UniProt Q9UFN0: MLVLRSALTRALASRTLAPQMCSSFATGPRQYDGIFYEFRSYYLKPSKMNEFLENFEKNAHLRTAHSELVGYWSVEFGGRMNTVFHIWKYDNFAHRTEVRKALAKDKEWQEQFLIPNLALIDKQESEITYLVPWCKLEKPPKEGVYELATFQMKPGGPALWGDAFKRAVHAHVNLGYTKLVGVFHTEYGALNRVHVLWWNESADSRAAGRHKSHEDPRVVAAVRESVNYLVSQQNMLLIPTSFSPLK
UniProt Q9UHB4: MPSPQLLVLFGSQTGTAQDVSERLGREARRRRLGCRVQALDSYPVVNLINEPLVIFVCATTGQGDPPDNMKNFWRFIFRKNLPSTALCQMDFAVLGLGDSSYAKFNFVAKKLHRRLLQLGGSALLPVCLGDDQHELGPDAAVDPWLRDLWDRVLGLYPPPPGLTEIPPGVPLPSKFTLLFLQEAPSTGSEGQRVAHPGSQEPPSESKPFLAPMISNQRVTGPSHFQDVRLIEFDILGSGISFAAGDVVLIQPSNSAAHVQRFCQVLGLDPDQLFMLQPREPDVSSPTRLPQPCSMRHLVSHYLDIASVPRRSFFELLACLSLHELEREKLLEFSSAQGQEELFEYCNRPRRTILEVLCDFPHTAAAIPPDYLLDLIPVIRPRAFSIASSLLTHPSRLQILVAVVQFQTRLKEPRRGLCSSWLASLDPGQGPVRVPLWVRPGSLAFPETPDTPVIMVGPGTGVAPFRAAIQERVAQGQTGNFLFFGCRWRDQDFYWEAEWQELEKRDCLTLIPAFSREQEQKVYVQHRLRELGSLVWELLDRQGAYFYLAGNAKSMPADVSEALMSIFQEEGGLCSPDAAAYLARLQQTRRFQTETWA
UniProt Q9UGM6: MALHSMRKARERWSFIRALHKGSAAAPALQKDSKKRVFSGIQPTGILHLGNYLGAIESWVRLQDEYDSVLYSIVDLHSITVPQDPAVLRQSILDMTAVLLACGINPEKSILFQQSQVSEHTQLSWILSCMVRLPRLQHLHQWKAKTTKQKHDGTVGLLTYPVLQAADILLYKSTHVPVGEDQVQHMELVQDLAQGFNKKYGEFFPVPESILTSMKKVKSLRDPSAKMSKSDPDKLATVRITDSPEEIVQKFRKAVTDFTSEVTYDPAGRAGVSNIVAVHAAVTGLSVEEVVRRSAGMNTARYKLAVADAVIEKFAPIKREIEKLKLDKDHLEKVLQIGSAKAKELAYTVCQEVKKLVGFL
UniProt Q9UBZ4: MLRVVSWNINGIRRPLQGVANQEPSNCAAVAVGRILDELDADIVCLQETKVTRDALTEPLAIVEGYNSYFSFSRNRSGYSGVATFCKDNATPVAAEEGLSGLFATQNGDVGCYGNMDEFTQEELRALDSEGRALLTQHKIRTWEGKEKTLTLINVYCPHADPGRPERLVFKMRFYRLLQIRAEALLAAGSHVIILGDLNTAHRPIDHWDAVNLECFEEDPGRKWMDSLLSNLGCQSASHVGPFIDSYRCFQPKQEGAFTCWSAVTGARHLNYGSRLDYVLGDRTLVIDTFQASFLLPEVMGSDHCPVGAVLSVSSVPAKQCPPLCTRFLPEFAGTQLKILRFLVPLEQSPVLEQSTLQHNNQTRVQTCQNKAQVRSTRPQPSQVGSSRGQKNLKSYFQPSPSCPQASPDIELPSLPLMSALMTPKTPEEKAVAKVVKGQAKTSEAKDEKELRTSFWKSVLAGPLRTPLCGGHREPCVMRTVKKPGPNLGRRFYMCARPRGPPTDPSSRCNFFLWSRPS
UniProt Q9P2D3: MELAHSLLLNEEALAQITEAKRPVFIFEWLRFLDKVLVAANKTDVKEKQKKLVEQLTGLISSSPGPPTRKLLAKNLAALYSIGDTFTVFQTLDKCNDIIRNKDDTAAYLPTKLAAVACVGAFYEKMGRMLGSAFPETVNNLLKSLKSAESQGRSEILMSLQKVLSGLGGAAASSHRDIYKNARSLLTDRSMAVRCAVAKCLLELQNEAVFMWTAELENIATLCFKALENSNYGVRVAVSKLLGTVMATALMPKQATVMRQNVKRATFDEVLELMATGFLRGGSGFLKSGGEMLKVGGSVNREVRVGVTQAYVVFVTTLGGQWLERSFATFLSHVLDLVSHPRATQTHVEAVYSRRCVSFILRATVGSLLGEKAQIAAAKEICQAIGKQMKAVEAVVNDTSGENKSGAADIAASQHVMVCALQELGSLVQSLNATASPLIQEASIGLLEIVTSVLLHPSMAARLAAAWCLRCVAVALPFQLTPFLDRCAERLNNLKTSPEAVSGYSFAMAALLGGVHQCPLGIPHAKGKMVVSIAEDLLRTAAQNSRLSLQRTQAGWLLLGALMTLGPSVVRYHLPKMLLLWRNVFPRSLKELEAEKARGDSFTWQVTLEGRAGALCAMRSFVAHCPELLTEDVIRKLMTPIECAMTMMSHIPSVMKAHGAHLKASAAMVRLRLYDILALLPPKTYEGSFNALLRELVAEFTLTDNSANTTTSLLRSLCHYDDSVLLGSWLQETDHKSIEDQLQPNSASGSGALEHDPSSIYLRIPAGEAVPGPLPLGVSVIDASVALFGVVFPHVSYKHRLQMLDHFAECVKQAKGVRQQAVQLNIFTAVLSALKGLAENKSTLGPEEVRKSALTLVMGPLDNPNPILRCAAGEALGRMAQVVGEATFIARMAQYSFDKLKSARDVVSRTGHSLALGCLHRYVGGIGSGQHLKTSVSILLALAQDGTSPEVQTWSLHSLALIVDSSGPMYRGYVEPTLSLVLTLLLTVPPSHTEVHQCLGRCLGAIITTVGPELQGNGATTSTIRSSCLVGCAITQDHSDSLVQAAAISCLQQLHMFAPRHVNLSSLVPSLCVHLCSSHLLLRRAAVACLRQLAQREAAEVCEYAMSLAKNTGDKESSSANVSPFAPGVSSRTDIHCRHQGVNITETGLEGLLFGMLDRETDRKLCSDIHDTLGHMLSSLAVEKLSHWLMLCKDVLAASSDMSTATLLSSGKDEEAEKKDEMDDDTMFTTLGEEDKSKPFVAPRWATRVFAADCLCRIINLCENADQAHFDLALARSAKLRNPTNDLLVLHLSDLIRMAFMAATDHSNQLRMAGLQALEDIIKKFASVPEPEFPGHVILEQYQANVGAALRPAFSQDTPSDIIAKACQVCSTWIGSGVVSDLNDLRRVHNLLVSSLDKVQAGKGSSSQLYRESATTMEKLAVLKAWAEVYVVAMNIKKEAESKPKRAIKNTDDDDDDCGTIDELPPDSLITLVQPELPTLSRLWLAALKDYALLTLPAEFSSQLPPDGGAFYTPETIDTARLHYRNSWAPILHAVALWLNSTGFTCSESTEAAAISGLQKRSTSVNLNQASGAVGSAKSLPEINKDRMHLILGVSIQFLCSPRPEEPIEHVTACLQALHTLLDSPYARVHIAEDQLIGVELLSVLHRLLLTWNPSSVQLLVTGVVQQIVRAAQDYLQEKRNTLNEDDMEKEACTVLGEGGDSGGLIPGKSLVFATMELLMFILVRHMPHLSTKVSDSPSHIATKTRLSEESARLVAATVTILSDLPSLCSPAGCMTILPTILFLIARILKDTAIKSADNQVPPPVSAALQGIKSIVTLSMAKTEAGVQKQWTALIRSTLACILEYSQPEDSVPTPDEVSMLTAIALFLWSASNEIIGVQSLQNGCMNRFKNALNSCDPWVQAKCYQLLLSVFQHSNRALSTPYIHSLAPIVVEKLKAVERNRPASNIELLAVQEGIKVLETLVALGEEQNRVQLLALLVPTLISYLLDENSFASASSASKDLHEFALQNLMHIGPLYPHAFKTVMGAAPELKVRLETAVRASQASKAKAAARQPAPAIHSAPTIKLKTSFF

This is one part of the list. Small differences around the control level are noise.

Compound in the experiment: CN[C@@H]1C[C@H]2O[C@@](C)([C@@H]1OC)n1c3ccccc3c3c4c(c5c6ccccc6n2c5c31)C(=O)NC4 [staurosporine]
Description: log2 fold change of tryptic peptide abundance, ligand vs vehicle (limited proteolysis) (log2 ratio); higher = more trypsin-susceptible (destabilized). Conditions: ligand concentration: 20 uM; sample: K562 cleared lysate; digestion: 4 min, 22 C (HT-PELSA RT4min, Orbitrap Astral).
In the case of “TFIP11 (peptide sequence: REAENMAQR, peptide start residue: 752) (UniProt Q9UBB9)”, the log2 fold change came to 1.24.

With “UniProt Q9UHD8 (peptide sequence: TEITIVKPQESAHR, peptide start residue: 150)”, the log2 fold change is -0.217.

For “UniProt Q9UIF8 (peptide sequence: LIVPSPDVLK, peptide start residue: 401)”, the log2 fold change came out at 0.311. For the target “SAE1 (peptide sequence: VSQGVEDGPDTKR, peptide start residue: 184) (UniProt Q9UBE0)”, the log2 fold change is -0.0938. For the target “STOML2 (peptide sequence: ESAINVAEGKK, peptide start residue: 212) (UniProt Q9UJZ1)”, the log2 fold change was found to be 0.407.

With “ZNFX1 (peptide sequence: NGHIYVIGDCGGAMER, peptide start residue: 1851) (UniProt Q9P2E3)”, the log2 fold change was -0.223. For “FAM135A (peptide sequence: SVVPECHLNDSK, peptide start residue: 858) (UniProt Q9P2D6)”, the log2 fold change was -0.336.

With “UniProt Q9UHA2 (peptide sequence: CIVEYQNK, peptide start residue: 34)”, the log2 fold change is 0.055. For the target “TBC1D14 (peptide sequence: LLSAPEYGPK, peptide start residue: 40) (UniProt Q9P2M4)”, the log2 fold change was determined as 0.177.

“UniProt Q9NZQ9 (peptide sequence: FGYHFTQQGPR, peptide start residue: 315)”: the log2 fold change is -0.0525.

Consider “DCTN4 (peptide sequence: VLYLVQGEK, peptide start residue: 10) (UniProt Q9UJW0)”, for which the log2 fold change was -0.227. “RABGEF1 (peptide sequence: QTSIETDRVSK, peptide start residue: 130) (UniProt Q9UJ41)”: the log2 fold change came out at 0.777. With “RBM27 (peptide sequence: SKDRDPNR, peptide start residue: 187) (UniProt Q9P2N5)”, the log2 fold change was 0.946. As to “PSMC3IP (peptide sequence: AATNHVTPEEKEQVYR, peptide start residue: 149) (UniProt Q9P2W1)”, the log2 fold change was -0.194. The same measure for “POLG2 (peptide sequence: VDAGQPELLTER, peptide start residue: 25) (UniProt Q9UHN1)”: -0.00441; for “AFF4 (peptide sequence: LSSEHYSSQSHGNSMTELKPSSK, peptide start residue: 270) (UniProt Q9UHB7)”: -0.594; for “MKRN1 (peptide sequence: NHFWELIEER, peptide start residue: 417) (UniProt Q9UHC7)”: -0.419.

For “DHCR7 (peptide sequence: SLDGVTNDR, peptide start residue: 14) (UniProt Q9UBM7)”, the log2 fold change is -0.0837. With “NOL12 (peptide sequence: LVLSFDEEK, peptide start residue: 18) (UniProt Q9UGY1)”, the log2 fold change is -0.171. Consider “UniProt Q9UJL9 (peptide sequence: VALWEDVTK, peptide start residue: 29)”, for which the log2 fold change was -0.199.

For “DBNL (peptide sequence: VKDPNSGLPK, peptide start residue: 69) (UniProt Q9UJU6)”, the log2 fold change stood at 0.238. For the target “MBD1 (peptide sequence: DTAVWLPR, peptide start residue: 586) (UniProt Q9UIS9)”, the log2 fold change is -0.355. As to “UniProt Q9UC07 (peptide sequence: EVMLETFR, peptide start residue: 31)”, the log2 fold change is -0.00354. Consider “CHMP5 (peptide sequence: NKDGVLVDEFGLPQIPAS, peptide start residue: 202) (UniProt Q9NZZ3)”, for which the log2 fold change is -0.117.

Turning to “CNOT7 (peptide sequence: CNVDLLK, peptide start residue: 67) (UniProt Q9UIV1)”, the log2 fold change was determined as 0.474. Consider “NIPSNAP3A (peptide sequence: AVHAHVNLGYTK, peptide start residue: 168) (UniProt Q9UFN0)”, for which the log2 fold change is 0.437. The same measure for “POGK (peptide sequence: GMLILNGFR, peptide start residue: 466) (UniProt Q9P215)”: -0.285; for “NDOR1 (peptide sequence: LRELGSLVWELLDR, peptide start residue: 528) (UniProt Q9UHB4)”: 0.973; for “SCOC (peptide sequence: VDAVKEENLK, peptide start residue: 118) (UniProt Q9UIL1)”: -0.0157. The same measure for “WARS2 (peptide sequence: YKLAVADAVIEK, peptide start residue: 302) (UniProt Q9UGM6)”: 0.518. As to “APEX2 (peptide sequence: STRPQPSQVGSSR, peptide start residue: 376) (UniProt Q9UBZ4)”, the log2 fold change was -0.281.

As to “TSKS (peptide sequence: ALTSLVDEVK, peptide start residue: 471) (UniProt Q9UJT2)”, the log2 fold change was 0.424.

In the case of “HEATR5B (peptide sequence: TVMGAAPELK, peptide start residue: 2023) (UniProt Q9P2D3)”, the log2 fold change is 0.419. Next, “IFT172 (peptide sequence: HVAYLWAK, peptide start residue: 1089) (UniProt Q9UG01)”: 0.537. Next, “ITSN2 (peptide sequence: NMQFSNTPDSGVSLLHK, peptide start residue: 567) (UniProt Q9NZM3)”: 0.512; “BAZ1B (peptide sequence: NKENGKVENGLGK, peptide start residue: 805) (UniProt Q9UIG0)”: -0.567. With “C19orf25 (peptide sequence: MMEDAEAPGEQLYQQSR, peptide start residue: 51) (UniProt Q9UFG5)”, the log2 fold change was -0.229.
